38 targets from the supplement of paper PMC10849652 can be followed below.

Amino acid sequences for entries named in this document (tags omitted). A change or cut given only in a name is not applied to a line headed by its entry.
UniProt Q6PL24: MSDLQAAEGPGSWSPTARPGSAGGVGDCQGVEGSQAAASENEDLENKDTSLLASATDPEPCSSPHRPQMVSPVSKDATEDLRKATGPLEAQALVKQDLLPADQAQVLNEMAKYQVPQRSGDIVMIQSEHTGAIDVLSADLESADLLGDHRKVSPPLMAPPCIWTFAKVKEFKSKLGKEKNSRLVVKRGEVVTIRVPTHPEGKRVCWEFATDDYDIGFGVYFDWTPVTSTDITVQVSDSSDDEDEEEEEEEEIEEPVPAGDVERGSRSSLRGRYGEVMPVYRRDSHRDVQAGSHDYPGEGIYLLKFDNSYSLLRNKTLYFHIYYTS
UniProt Q9P2C4: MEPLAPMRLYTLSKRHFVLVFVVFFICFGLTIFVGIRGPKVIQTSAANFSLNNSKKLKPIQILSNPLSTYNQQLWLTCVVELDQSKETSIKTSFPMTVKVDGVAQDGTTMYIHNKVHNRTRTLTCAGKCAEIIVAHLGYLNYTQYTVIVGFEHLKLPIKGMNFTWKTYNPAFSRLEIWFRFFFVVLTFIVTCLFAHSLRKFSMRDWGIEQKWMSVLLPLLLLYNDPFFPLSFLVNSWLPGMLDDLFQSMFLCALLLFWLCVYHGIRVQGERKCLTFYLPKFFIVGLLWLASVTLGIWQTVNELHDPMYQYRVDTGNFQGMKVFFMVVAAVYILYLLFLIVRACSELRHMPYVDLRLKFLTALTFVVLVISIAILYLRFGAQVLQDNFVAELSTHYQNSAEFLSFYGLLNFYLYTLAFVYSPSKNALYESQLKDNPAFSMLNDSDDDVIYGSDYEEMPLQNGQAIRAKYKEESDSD
UniProt Q9Y5J7: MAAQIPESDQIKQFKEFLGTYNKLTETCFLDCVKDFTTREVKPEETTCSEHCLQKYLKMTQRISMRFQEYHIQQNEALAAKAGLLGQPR
UniProt Q9BXJ8: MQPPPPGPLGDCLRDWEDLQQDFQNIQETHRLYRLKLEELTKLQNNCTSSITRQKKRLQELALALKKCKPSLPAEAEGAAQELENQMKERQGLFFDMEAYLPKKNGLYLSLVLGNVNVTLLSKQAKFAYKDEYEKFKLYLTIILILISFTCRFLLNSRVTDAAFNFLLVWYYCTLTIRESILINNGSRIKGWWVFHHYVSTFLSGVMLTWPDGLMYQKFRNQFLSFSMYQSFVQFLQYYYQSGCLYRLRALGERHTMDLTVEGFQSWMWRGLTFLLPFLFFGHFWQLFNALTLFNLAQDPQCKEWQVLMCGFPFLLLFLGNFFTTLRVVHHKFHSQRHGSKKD
UniProt Q86XR7, whole entry, looked up: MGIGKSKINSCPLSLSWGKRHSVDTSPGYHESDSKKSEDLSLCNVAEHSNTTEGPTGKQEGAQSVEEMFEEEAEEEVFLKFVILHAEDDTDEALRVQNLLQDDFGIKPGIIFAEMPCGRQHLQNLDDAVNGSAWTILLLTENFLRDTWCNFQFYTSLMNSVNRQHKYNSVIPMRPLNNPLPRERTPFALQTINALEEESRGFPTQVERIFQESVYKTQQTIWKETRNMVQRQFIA
UniProt Q9NQ88: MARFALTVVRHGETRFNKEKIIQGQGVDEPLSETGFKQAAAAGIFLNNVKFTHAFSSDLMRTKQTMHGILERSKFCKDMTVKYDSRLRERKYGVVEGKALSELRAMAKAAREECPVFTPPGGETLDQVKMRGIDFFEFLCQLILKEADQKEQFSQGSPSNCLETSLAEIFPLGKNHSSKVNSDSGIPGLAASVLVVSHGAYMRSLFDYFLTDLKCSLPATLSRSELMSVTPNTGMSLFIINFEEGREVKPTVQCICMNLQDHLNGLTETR
UniProt Q92544: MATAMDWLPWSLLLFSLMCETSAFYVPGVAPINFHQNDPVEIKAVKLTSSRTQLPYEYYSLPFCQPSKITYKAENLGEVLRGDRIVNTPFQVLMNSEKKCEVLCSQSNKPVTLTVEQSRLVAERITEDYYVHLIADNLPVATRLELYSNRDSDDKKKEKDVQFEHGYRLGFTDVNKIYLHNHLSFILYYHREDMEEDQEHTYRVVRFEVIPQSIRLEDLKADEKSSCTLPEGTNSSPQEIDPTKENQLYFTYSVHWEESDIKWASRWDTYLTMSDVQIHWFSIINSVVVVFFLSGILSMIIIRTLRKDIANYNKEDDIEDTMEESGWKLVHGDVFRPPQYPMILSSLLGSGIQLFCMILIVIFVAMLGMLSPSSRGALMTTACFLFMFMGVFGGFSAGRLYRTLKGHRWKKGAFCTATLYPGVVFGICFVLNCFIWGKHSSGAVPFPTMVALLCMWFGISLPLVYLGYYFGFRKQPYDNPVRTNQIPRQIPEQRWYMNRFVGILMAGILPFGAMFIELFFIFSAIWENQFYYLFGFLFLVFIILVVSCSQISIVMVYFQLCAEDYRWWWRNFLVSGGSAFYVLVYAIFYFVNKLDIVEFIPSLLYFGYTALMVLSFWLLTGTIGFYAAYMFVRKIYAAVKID
UniProt Q96DC7: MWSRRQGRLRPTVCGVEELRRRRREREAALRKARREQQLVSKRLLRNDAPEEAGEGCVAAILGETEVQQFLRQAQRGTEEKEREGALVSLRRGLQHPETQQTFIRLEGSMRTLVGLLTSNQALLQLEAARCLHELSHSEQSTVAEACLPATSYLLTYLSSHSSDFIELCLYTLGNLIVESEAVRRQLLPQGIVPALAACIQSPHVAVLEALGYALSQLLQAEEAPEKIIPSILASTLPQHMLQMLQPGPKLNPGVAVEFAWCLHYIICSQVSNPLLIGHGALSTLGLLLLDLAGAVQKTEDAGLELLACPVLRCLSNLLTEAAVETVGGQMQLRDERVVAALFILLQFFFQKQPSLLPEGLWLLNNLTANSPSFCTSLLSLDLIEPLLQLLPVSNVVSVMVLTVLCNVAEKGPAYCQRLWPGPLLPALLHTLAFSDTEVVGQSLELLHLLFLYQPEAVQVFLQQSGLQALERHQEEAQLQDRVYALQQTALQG
UniProt Q86UE8, whole entry, looked up: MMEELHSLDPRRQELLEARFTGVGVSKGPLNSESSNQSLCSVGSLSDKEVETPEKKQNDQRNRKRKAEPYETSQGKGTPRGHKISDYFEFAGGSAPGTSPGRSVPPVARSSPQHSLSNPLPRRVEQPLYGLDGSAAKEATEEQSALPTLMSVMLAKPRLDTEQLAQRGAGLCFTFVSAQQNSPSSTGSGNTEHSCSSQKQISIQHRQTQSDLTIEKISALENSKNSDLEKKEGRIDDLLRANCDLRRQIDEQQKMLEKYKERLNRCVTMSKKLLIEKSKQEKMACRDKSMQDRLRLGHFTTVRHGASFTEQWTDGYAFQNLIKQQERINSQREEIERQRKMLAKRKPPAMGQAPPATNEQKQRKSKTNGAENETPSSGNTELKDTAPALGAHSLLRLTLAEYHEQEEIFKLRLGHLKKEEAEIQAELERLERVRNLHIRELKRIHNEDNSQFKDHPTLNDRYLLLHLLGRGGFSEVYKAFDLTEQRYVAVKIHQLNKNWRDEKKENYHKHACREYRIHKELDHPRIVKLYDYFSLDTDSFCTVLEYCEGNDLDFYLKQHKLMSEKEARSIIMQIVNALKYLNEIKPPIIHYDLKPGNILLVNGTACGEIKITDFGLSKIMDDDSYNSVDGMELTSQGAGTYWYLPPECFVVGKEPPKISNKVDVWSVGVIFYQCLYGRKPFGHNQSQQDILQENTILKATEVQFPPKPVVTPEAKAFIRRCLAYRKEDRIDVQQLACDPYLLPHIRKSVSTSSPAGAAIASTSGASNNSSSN
UniProt Q5TEJ8: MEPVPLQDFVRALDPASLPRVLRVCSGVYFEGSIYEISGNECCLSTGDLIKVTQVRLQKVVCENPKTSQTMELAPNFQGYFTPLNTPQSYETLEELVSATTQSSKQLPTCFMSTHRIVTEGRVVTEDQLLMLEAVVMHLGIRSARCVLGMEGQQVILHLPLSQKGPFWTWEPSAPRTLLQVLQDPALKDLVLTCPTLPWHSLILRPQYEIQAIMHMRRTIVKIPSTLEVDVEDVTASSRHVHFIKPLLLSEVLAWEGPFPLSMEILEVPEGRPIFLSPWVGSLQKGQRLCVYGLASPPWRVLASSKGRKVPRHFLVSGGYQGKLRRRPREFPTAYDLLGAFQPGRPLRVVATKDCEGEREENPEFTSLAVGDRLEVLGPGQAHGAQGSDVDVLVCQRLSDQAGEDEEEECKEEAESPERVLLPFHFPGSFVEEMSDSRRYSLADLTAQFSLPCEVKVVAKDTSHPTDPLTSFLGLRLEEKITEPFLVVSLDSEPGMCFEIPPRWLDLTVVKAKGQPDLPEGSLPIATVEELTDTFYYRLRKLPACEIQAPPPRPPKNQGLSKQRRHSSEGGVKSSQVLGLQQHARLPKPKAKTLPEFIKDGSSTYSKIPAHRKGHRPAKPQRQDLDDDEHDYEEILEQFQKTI
UniProt Q9UM00: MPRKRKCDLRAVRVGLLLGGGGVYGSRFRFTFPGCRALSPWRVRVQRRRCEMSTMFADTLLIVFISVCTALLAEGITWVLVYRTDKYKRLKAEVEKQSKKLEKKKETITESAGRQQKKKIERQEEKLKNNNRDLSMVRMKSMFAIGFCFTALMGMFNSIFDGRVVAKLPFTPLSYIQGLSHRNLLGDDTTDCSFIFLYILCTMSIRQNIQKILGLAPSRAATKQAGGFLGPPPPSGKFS
UniProt O14925: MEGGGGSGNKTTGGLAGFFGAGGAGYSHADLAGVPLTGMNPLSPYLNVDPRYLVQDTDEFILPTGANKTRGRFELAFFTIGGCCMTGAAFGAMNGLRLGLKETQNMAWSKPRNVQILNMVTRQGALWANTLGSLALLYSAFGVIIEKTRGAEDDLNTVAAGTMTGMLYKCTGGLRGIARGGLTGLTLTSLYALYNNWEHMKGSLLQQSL
UniProt Q8NDZ6: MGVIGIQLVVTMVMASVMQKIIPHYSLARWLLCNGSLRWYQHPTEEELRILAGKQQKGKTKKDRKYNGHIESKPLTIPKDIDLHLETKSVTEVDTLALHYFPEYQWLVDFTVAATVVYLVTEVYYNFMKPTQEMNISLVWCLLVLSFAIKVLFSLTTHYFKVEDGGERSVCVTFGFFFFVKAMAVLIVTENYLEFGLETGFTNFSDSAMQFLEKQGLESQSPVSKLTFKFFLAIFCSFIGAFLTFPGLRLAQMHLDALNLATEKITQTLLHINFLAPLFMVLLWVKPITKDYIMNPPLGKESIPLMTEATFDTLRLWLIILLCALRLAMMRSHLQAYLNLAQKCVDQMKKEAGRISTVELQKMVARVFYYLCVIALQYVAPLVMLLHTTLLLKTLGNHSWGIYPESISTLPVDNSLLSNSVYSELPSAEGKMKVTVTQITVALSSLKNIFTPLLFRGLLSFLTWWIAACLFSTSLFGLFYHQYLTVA
UniProt Q86W42: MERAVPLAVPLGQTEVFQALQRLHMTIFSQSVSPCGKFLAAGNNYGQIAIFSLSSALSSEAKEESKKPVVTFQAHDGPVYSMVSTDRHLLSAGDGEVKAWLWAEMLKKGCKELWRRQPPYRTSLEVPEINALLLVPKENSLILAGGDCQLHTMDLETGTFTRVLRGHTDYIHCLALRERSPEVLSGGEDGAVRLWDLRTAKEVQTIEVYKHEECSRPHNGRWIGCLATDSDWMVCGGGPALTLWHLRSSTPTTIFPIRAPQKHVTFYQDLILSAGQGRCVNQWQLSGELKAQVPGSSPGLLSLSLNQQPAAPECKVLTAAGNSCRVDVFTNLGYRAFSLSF
UniProt Q96J01: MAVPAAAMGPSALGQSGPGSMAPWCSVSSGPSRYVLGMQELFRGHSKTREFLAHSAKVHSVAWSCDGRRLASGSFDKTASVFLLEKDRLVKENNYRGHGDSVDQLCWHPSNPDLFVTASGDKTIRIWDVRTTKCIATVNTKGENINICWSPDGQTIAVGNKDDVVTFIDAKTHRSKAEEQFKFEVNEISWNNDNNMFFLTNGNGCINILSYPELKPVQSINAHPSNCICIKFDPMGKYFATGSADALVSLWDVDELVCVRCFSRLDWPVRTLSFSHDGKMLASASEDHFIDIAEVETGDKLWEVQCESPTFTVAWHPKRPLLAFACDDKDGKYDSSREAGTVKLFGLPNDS
UniProt Q15363: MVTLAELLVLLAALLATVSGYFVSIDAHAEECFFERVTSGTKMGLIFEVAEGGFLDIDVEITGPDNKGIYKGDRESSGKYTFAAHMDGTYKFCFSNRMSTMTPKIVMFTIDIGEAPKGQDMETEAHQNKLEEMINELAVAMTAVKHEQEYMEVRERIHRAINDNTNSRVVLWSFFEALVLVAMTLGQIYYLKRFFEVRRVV
UniProt Q9Y3A6: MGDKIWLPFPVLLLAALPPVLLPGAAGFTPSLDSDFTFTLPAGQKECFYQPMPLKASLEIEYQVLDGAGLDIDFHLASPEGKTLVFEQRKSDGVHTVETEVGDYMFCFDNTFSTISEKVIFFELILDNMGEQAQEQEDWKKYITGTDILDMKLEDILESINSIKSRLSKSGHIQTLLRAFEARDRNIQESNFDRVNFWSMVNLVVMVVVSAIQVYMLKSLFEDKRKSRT
UniProt Q7Z7N9: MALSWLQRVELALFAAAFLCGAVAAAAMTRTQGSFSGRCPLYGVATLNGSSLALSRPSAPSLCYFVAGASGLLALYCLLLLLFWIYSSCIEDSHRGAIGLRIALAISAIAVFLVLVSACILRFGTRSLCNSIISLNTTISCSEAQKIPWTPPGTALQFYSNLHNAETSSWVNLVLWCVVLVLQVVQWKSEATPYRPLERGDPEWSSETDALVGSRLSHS

Some of the results follow.

Compound in this experiment: c1cn2cc(-c3ccc4cn[nH]c4c3)nc(Nc3ccc(N4CCOCC4)cc3)c2n1 [entospletinib]
The experiment in a line: log2 fold change, soluble protein after heating vs DMSO (PISA); higher = thermal stabilisation; K562 lysate, 10 uM; active = over 0.2 and 3.5 SD of the protein, either way, in both replicates (recomputed). The method, boiled down:
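Thermal stability, expressed as log-two fold change relative to solvent controls, is given from duplicates. Crude K562 extract in PBS pH 7.4 with 1 mM MgCl2, at 1 mg/mL protein, was treated with 10 μM compound for 30 min and heated in aliquots for 3 min across 48°C-58°C. After pooling, adjustment to 0.5% NP-40 at 4°C and centrifugation at 21,000xg for 90 min, supernatant protein was measured by TMTpro 16plex LC-MS/MS with channel sums equalised.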
On to TMED8 (UniProt Q6PL24), for which the log2 fold change is inactive: -0.023.

Turning to TLK1 isoform 2 (UniProt Q9UKI8), the log2 fold change is inactive: 0.04. To TM9SF3 (UniProt Q9HD45) belongs inactive: -0.018. To TM9SF2 (UniProt Q99805) belongs inactive: -0.006. To TMEM181 (UniProt Q9P2C4) belongs inactive: -0.025; to TLCD4 (UniProt Q96MV1), inactive: 0.019; to TMEM115 (UniProt Q12893), inactive: -0.087. Consider TIMM9 (UniProt Q9Y5J7), for which the log2 fold change is inactive: -0.147. For the target TMEM120A (UniProt Q9BXJ8), the log2 fold change was inactive: 0.068. In the case of TICAM2 isoform 2 (UniProt Q86XR7), the log2 fold change is inactive: 0.003.

Consider TIGAR (UniProt Q9NQ88), for which the log2 fold change was inactive: -0.129.

As to TM9SF4 (UniProt Q92544), the log2 fold change is inactive: -0.048. To TMEM173 (UniProt Q86WV6) belongs inactive: -0.021; to TJP1 isoform 2 (UniProt Q07157), inactive: -0.043; to TMCO6 isoform 2 (UniProt Q96DC7), inactive: -0.013. To TLK2 isoform 2 (UniProt Q86UE8) belongs inactive: -0.135; to TLE4 isoform 3 (UniProt Q04727), inactive: 0; to TMEM106B (UniProt Q9NUM4), inactive: 0.025. As for TMED1 (UniProt Q13445), the log2 fold change is inactive: -0.008. To THEMIS2 (UniProt Q5TEJ8) belongs inactive: -0.007; to TMEM165 (UniProt Q9HC07), inactive: -0.001.

Regarding TMCO1 (UniProt Q9UM00), the log2 fold change is inactive: 0.038. To THOC5 (UniProt Q13769) belongs inactive: -0.009; to TMEM168 (UniProt Q9H0V1), inactive: -0.213. To TMEM120B (UniProt A0PK00) belongs inactive: -0.129. To TIMM50 isoform 2 (UniProt Q3ZCQ8) belongs inactive: -0.008; to TMBIM6 isoform 2 (UniProt P55061), inactive: -0.007. Turning to TLE3 isoform 4 (UniProt Q04726), the log2 fold change is inactive: -0.009. To TIMM23 (UniProt O14925) belongs inactive: 0.008. To TM9SF1 (UniProt O15321) belongs inactive: -0.053; to TMEM161B (UniProt Q8NDZ6), inactive: -0.026; to THOC6 (UniProt Q86W42), inactive: 0.006. To TMEM11 (UniProt P17152) belongs inactive: 0.055; to THOC3 (UniProt Q96J01), inactive: -0.008. Regarding TMED2 (UniProt Q15363), the log2 fold change was inactive: -0.027. To TMED5 (UniProt Q9Y3A6) belongs inactive: -0.021.

On to TMEM179B (UniProt Q7Z7N9), for which the log2 fold change is inactive: -0.105. As to THAP12 (UniProt O43422), the log2 fold change was inactive: 0.04.
